Measurements reported in PubChem BioAssay AID2685 (National Center for Advancing Translational Sciences (NCATS), 2010).
The campaign covered roughly 320,000 compounds. About 2,100 (0.66%) were called active. This list was built around the results that the source calls inconclusive (neither active nor inactive); the mix of calls is not that of the screen. Calls come from the whole dose curve; as a rule, active = well fitted inhibition curve with a large enough effect in the signal ratio, with a control signal flat (not every such curve was filed as active); inconclusive = small, poorly fitted or top-dose-only effect, or effect the other way, or a change in a side signal; inactive = flat fitted curve, though single readings scatter; the % refers to the signal ratio. Where the call is inconclusive, the potency comes from a doubtful curve fit.

experiment: qHTS Assay for Lipid Storage Modulators in Drosophila S3 Cells; settings: BODIPY lipid droplet fluorescence, 18-24 h, cells fed with added oleic acid; lipid storage change, negative = inhibition: at 46.1 µM (top of the series) unless noted
In short: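 Drosophila S3 cells got compounds at several concentrations plus oleic acid (400 uM solution). Laser-scanning cytometry with 488 nm excitation read lipid droplets at 500-530 nm and cells at 575-640 nm. Percent activity was relative to 20 uM Triacsin C.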
% is set by controls: 0 for no effect and ±100 for the full control effect; potency is the fitted concentration of half-maximal effect.

Q: For `CC(=O)NC(Cc1ccccc1C)C(=O)NC1CCN(C(=O)NCc2ccccc2)CC1` (centres undefined), which lipid storage change, negative = inhibition is on record?
A: inconclusive: -15.4%

Q: With `Cc1c(Br)c([N+](=O)[O-])nn1CC(=O)NC1CCCCCC1` as the compound, how does the Potency read?
A: inconclusive: 23.1 µM [falling, single point]

Q: For `COCCCNC(=S)N1CCN(S(=O)(=O)c2ccc(OC)cc2)CC1`, which lipid storage change, negative = inhibition is on record?
A: inconclusive: 12.3%

Q: With `COC(=O)CCN1CCC(C(N)=O)CC1` as the compound, how does the Potency read?
A: inconclusive: 32.6 µM [falling, partial curve, poor fit]

Q: With `CC1CCN(S(=O)(=O)c2ccc(NC(=O)CSc3ncccc3C(=O)O)cc2)CC1` as the compound, how does the lipid storage change, negative = inhibition read?
A: inconclusive: -15.7%

Q: For `Cc1nnc(SCC(=O)Nc2ccc3c(c2)COC3=O)n1-c1ccccc1`, which lipid storage change, negative = inhibition is on record?
A: inconclusive: 15.7%

Q: With `CC(OC(=O)CCN=C1NS(=O)(=O)c2ccccc21)C(=O)Nc1ccc(N(C)C)cc1` (centres undefined) as the compound, how does the lipid storage change, negative = inhibition read?
A: inconclusive: 0.503%

Q: With `COc1ccc(S(=O)(=O)N2CCC(C(=O)NCCc3ccc4c(c3)OCO4)CC2)cc1` as the compound, how does the Potency read?
A: inconclusive: 0.13 µM [activator, full curve, poor fit]

Q: Which lipid storage change, negative = inhibition does the source give for `Cc1cc(C(=O)CCl)c(C)n1CCc1ccccc1` here?
A: inconclusive: -2.41%

Q: With `COC(=O)c1cccc(OC(N)=O)c1` as the compound, how does the Potency read?
A: inconclusive: 6.51 µM [activator, single point]

Q: With `Cc1ccc2c(c1)c(C)c(C)n2CC(O)Cn1nnc2ccccc21` (centres undefined) as the compound, how does the lipid storage change, negative = inhibition read?
A: inconclusive: 30.1%

Q: Which lipid storage change, negative = inhibition does the source give for `CCOc1ncccc1C(=O)Nc1cccc(S(=O)(=O)NC2=NCCC2)c1` here?
A: inconclusive: -35%

Q: For `COc1ccc(-c2nnn(CC(=O)N(CC(=O)NCCC(C)C)c3ccccc3)n2)cc1OC`, which lipid storage change, negative = inhibition is on record?
A: inconclusive: 108%

Q: For `Cn1c(=O)[nH]c2c(Cl)nccc21`, which lipid storage change, negative = inhibition is on record?
A: inconclusive: -9.85%

Q: With `Cc1cc2ncn(CC(O)COC3CCCCC3)c2cc1C` (centres undefined) as the compound, how does the lipid storage change, negative = inhibition read?
A: inconclusive: -1.35%

Q: For `CC(NC(=O)CNC(=O)c1sc2ccccc2c1Cl)c1ccc(S(N)(=O)=O)cc1` (centres undefined), which lipid storage change, negative = inhibition is on record?
A: inconclusive: 24.9%

Q: Which Potency does the source give for `Cc1nc(-c2ccc(C(=O)Nc3cccc(Br)c3)cc2)cs1` here?
A: inconclusive: 0.0041 µM [falling, full curve, poor fit]

Q: Which Potency does the source give for `CCCCCCc1cc2cc(S(=O)(=O)c3ccc(F)cc3)c(=O)oc2cc1O` here?
A: inconclusive: 29.1 µM [falling, single point]

Q: For `C=C1CCN([C@H](C(=O)NCc2ccc(Cl)c(Cl)c2)C(C)C)S(=O)(=O)c2ccccc21`, which lipid storage change, negative = inhibition is on record?
A: inconclusive: 14.4%

Q: For `CC(C)C[C@H](NC(=O)c1[nH]cnc1C(=O)Nc1ccc(CNC(=O)OC(C)(C)C)cc1)C(=O)OC(C)(C)C`, which Potency is on record?
A: inconclusive: 2.59 µM [activator, single point]

Q: With `Cc1ccc(C(=O)NNC(=O)c2ccc3ccccc3c2O)cc1` as the compound, how does the lipid storage change, negative = inhibition read?
A: inconclusive: 15.6%

Q: For `COCCCNC(=S)N1CCC(C(=O)c2ccc3c(c2)OCCO3)CC1`, which lipid storage change, negative = inhibition is on record?
A: inconclusive: 4.81%

Q: With `NS(=O)(=O)c1ccc(NC(=O)CSc2cn[nH]n2)cc1` as the compound, how does the lipid storage change, negative = inhibition read?
A: inconclusive: 40.9%

Q: With `c1ccc2c(N3CCCCC3)nnc(N3CCCCC3)c2c1` as the compound, how does the Potency read?
A: active: 23.1 µM

Q: With `CN(CC(=O)OCC(=O)NCc1ccccc1)S(=O)(=O)c1ccc(F)cc1` as the compound, how does the lipid storage change, negative = inhibition read?
A: inconclusive: 4.86%

Q: With `COCCN(C(=O)COC(=O)/C=C/c1cccs1)c1c(N)n(Cc2ccccc2)c(=O)[nH]c1=O` as the compound, how does the lipid storage change, negative = inhibition read?
A: inconclusive

Q: For `COCCN1C2=C(C(=O)CC(C)(C)C2)C(c2ccc(O)c(OC)c2)C2=C1CC(C)(C)CC2=O`, which Potency is on record?
A: inconclusive: 4.61 µM [activator, partial curve, poor fit]

Q: With `CCOc1ccc(NC(=O)CCC(=O)NNC(=O)NC2CCCCC2)cc1` as the compound, how does the lipid storage change, negative = inhibition read?
A: inconclusive: 52.2%

Q: For `O=C(CCC(=O)N(CC(=O)NC1CCCCC1)Cc1ccco1)Nc1nccs1`, which Potency is on record?
A: inconclusive: 3.26 µM [activator, partial curve]

Q: Which lipid storage change, negative = inhibition does the source give for `C/C(=N\NC(=O)COc1ccc(C(C)(C)C)cc1)c1ccccc1` here?
A: inconclusive: -19.6%

Q: For `Cc1ccc(S(=O)(=O)c2c(N)n(Cc3ccco3)c3nc4ccccc4nc23)cc1C`, which Potency is on record?
A: inconclusive: 23.1 µM [activator, single point]

Q: With `Cc1cccc(C(=O)N2CCC(=O)N(C(COCc3ccccc3)Cc3ccccc3)CC2)c1` (centres undefined) as the compound, how does the lipid storage change, negative = inhibition read?
A: inconclusive: 0.332%

Q: With `CC(C)c1ccc(NC(=O)[C@H](NC(=O)[C@@H]2Cc3ccccc3CN2)c2ccccc2)cc1` as the compound, how does the Potency read?
A: inconclusive: 16.4 µM [activator, partial curve]

Q: With `Cc1cc(NS(=O)(=O)c2cn(C)nc2C)no1` as the compound, how does the Potency read?
A: inconclusive: 3.66 µM [falling, single point]

Q: Which lipid storage change, negative = inhibition does the source give for `COc1ccc(CNC(=O)COc2ccc(C)nc2[N+](=O)[O-])cc1` here?
A: inconclusive: 46%

Q: Which lipid storage change, negative = inhibition does the source give for `COc1cccc(CNC(=O)C2CCC(CNc3nc(=S)[nH]c4ccccc34)CC2)c1` (centres undefined) here?
A: inconclusive: 22.5%

Q: Which lipid storage change, negative = inhibition does the source give for `O=C(Nc1ccc(Br)cc1)c1ccc(N2C(=O)C3CC=CCC3C2=O)cc1` (centres undefined) here?
A: inconclusive: 20.6%

Q: For `Cc1ccsc1CNCC(O)c1ccccc1` (centres undefined), which lipid storage change, negative = inhibition is on record?
A: inconclusive: -43.1%

Q: For `NC(=O)c1ccsc1NC(=O)COC(=O)c1ccccn1`, which lipid storage change, negative = inhibition is on record?
A: inconclusive: -21.8%

Q: Which lipid storage change, negative = inhibition does the source give for `N#CCn1cnc2sc(-c3ccccc3)cc2c1=O` here?
A: inconclusive: 7.94%

Q: With `O=C(Cn1c(=O)c2cccn2c2ccccc21)Nc1ccc(F)cc1F` as the compound, how does the Potency read?
A: inconclusive: 29.1 µM [falling, single point]

Q: With `COc1ccc(-n2nnnc2-c2nc3ccccc3s2)cc1` as the compound, how does the Potency read?
A: inconclusive: 1.3 µM [activator, full curve]

Q: For `COc1ccc(N(CC(=O)NCCC2=CCCCC2)S(=O)(=O)c2ccc(C)cc2)cc1`, which lipid storage change, negative = inhibition is on record?
A: inconclusive: -32.9%

Q: With `CCCSc1nc(C)c2cc(C)cc(C)c2n1` as the compound, how does the lipid storage change, negative = inhibition read?
A: inconclusive: -22.3%

Q: Which Potency does the source give for `CCN(CC)C(=O)Cn1nc(C)c2ccccc2c1=O` here?
A: inconclusive: 0.411 µM [falling, single point]

Q: Which lipid storage change, negative = inhibition does the source give for `O=C(Cc1ccc(Cl)cc1)Nc1ccc(-c2cc3ccccc3oc2=O)c(Cl)c1` here?
A: inconclusive: 16.1%

Q: Which lipid storage change, negative = inhibition does the source give for `CC(=O)N[C@@H](C)C(=O)OC(C)C(=O)Nc1cccc([N+](=O)[O-])c1` (some centres undefined) here?
A: inconclusive: -19.9%

Q: For `CC(C)(C)N=C1SCC(C)(/C=N/O)S1` (centres undefined), which lipid storage change, negative = inhibition is on record?
A: inconclusive: -14.6%

Q: Which Potency does the source give for `Oc1ccc(C[C@H]2CNCCN2CC2CCCCC2)cc1` here?
A: inconclusive: 0.0046 µM [activator, full curve, poor fit]
